The supplement of paper PMC10849652
The list shows a part of the results.

The chains behind the UniProt entries cited, without tags or fusion partners. Where a name states a change or a piece, a line headed by the entry shows the natural chain unless it says otherwise.
UniProt Q9Y3A0: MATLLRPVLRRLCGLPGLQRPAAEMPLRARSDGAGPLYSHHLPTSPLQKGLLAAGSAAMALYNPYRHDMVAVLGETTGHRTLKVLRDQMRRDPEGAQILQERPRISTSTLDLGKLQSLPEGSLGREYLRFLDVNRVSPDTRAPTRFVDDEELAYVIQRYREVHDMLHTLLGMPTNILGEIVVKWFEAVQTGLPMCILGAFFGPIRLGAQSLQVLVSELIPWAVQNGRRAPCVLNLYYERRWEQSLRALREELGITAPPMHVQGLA
UniProt Q14894: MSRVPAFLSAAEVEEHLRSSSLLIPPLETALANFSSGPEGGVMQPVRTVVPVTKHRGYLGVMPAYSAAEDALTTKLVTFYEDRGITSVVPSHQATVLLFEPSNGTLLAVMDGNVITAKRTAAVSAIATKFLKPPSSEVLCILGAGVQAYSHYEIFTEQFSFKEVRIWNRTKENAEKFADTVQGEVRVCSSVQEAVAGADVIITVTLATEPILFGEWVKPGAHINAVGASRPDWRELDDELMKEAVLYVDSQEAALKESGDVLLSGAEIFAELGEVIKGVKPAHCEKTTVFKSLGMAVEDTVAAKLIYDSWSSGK
UniProt Q16526: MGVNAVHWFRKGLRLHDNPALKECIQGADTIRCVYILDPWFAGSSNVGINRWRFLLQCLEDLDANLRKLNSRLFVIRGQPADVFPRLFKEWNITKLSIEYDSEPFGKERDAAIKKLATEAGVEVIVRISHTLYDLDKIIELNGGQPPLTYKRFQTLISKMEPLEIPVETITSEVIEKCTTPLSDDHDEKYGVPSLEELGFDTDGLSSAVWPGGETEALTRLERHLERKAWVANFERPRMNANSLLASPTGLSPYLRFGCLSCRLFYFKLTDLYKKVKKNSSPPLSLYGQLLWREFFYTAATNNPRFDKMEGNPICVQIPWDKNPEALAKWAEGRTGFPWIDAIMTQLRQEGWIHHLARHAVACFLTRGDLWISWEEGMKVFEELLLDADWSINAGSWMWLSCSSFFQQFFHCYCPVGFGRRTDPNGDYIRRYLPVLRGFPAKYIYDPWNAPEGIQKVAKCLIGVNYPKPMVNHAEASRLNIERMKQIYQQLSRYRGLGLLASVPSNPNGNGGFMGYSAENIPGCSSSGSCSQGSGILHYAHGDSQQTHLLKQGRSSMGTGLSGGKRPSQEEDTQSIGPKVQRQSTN

Assays:
Assay in all cases: log2 fold change, soluble protein after heating vs DMSO (PISA); higher = thermal stabilisation; K562 cells, 10 uM, 30 min; active = over 0.2 and 3.5 SD of the protein, either way, in both replicates (recomputed)
[1] = compound: CC1=C(C=C(C=C1)NC(=O)C2=CC(=CC=C2)N(C)C)NC(=O)C3=CC=C(C=C3)O
Summary of the method: (§1)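 Aliquots of K562 cells (2×10^6 cells/mL) treated with 10 μM compound for 30 min were heated for 3 min over 48°C-58°C. After pooling and extraction in PBS with 0.5% NP-40 at 4°C, soluble protein from a 21,000xg, 90 min spin was quantified by TMTpro 16plex LC-MS/MS with channel sums equalised. Thermal stability is expressed against control samples, from duplicates, as a log2 fold change.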

Nexturastat A = compound: CCCCN(Cc1ccc(C(=O)NO)cc1)C(=O)Nc1ccccc1 [Nexturastat A]
Summary of the method: as §1

givinostat = compound: CCN(CC)Cc1ccc2cc(COC(=O)Nc3ccc(C(=O)NO)cc3)ccc2c1 [givinostat]
Summary of the method: as §1

epoxomicin = compound: CC[C@H](C)[C@@H](C(=O)N[C@@H]([C@@H](C)O)C(=O)N[C@@H](CC(C)C)C(=O)[C@]1(CO1)C)NC(=O)[C@H]([C@@H](C)CC)N(C)C(=O)C [epoxomicin]
Summary of the method: as §1

[2] = compound: CCn1c(C(=O)N(C2CC2)C2CC2)cc2c3c(ncn3C)c(Nc3cc(C)n(C)n3)nc21
Summary of the method: as §1

[3] = compound: CCn1cc(-c2ccnc3[nH]c(-c4cccc(CN(C)C)c4)cc23)c(-c2ccc(NC(=O)N(C)C)cc2)n1
Summary of the method: as §1

[4] = compound: CN1C2=C(C3=C1C(=O)N(N=C3)CC4=CC(=CC=C4)N)SC(=C2)S(=O)C
Summary of the method: as §1

[5] = compound: CN1CCC(CNc2ccc3ncc(-c4cccc(OC(F)(F)F)c4)n3n2)CC1
Summary of the method: as §1

[6] = compound: CC1=CC=C(C=C1)SC2=C3C=C(SC3=CN=C2)C(=O)N
Summary of the method: as §1

vemurafenib = compound: CCCS(=O)(=O)Nc1ccc(F)c(C(=O)c2c[nH]c3ncc(-c4ccc(Cl)cc4)cc23)c1F [vemurafenib]
Summary of the method: as §1

[7] = compound: CCCS(=O)(=O)Nc1ccc(F)c(C(=O)c2c[nH]c3ncc(Cl)cc23)c1F
Summary of the method: as §1

volasertib = compound: CC[C@@H]1C(=O)N(C)c2cnc(Nc3ccc(C(=O)N[C@H]4CC[C@H](N5CCN(CC6CC6)CC5)CC4)cc3OC)nc2N1C(C)C [volasertib]
Summary of the method: as §1

[8] = compound: CC[C@H](C)N1C=C(C2=C(C=C(C=C21)C3=CN=C(C=C3)N4CCNCC4)C(=O)NCC5=C(C=C(NC5=O)C)C)C
Summary of the method: as §1

[9] = compound: CN(C)CC(=O)Nc1ccc2[nH]c(=O)c3ccccc3c2c1
Summary of the method: as §1

Measured: log2 fold change

COQ4 (UniProt Q9Y3A0)
inactive: [1] 0.17

CRYM (UniProt Q14894)
inactive: Nexturastat A -0.085 | givinostat 0.076 | epoxomicin -0.002 | [2] 0 | [3] -0.481 | [4] -0.281 | [5] 0.022

CRY1 (UniProt Q16526)
inactive: [1] 0.033 | [6] 0.104 | Nexturastat A 0.12 | vemurafenib -0.03 | [7] -0.212 | volasertib -0.336 | [8] 0.054 | epoxomicin 0.01 | [3] -0.247 | [9] -0.046 | [5] -0.003
